Residue numbers refer to the chain shown, from its start. Results are given in words; binding and its absence hold for the method and conditions named. In cells and extracts the contact can be indirect. Here binding means that the protein was enriched with, or labelled near, the bait; the list need not be complete. For some assays here: No binding means not detected with the bait. Tags and fused reporters may be left off the sequences shown.

Chains of the proteins cited; added tags and fusions are not shown.
UniProt Q9M658: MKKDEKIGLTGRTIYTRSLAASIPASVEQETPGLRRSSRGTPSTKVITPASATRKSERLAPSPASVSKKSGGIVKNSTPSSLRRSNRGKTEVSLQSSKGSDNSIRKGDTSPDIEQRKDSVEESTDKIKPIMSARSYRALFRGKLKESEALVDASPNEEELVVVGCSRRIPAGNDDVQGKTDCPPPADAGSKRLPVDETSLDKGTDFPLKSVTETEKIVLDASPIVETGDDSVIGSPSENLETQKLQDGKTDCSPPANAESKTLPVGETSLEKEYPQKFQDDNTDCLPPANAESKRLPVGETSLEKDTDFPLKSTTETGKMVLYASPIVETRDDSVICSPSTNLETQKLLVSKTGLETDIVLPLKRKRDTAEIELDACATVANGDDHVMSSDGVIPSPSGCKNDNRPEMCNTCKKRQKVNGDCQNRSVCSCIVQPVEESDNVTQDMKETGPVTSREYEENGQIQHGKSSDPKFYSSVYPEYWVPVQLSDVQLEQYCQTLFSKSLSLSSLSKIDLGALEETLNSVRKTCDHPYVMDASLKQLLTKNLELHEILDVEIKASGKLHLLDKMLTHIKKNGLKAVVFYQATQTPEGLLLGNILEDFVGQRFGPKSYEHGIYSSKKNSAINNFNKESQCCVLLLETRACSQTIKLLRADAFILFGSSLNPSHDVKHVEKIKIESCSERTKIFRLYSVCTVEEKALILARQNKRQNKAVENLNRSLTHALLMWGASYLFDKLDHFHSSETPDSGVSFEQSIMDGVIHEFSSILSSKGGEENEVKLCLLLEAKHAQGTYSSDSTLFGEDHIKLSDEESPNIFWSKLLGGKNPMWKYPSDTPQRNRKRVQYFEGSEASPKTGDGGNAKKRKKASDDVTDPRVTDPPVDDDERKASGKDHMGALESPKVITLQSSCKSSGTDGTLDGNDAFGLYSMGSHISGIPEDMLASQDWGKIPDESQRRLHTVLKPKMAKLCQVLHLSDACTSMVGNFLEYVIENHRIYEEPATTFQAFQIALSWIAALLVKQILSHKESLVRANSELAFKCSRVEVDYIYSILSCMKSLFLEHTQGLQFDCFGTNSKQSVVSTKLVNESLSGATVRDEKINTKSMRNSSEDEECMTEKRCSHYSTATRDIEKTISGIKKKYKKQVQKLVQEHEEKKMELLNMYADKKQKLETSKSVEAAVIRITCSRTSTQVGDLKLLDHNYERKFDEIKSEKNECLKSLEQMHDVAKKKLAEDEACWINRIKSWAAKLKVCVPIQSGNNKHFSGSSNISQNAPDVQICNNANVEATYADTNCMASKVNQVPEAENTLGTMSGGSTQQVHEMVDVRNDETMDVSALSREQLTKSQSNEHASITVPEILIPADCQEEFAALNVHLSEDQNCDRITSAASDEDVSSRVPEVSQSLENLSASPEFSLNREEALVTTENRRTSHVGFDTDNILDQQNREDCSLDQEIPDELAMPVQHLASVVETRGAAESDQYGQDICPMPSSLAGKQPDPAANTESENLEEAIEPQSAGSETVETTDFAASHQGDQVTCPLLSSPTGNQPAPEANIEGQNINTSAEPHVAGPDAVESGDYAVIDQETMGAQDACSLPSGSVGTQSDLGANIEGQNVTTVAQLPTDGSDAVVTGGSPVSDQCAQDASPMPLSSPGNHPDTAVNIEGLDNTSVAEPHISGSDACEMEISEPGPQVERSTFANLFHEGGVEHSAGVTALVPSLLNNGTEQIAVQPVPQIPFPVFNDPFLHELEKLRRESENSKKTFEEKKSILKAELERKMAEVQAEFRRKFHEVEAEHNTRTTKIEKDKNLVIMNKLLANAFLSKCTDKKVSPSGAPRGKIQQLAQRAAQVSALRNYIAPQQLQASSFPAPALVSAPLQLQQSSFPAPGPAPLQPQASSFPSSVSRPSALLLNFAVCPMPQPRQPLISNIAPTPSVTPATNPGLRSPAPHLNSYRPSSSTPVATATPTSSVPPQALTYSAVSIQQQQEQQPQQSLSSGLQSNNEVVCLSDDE

One test concerns the target T1, PIAL2-Myc (Arabidopsis) (UniProt F4JYG0).
T1 sequence: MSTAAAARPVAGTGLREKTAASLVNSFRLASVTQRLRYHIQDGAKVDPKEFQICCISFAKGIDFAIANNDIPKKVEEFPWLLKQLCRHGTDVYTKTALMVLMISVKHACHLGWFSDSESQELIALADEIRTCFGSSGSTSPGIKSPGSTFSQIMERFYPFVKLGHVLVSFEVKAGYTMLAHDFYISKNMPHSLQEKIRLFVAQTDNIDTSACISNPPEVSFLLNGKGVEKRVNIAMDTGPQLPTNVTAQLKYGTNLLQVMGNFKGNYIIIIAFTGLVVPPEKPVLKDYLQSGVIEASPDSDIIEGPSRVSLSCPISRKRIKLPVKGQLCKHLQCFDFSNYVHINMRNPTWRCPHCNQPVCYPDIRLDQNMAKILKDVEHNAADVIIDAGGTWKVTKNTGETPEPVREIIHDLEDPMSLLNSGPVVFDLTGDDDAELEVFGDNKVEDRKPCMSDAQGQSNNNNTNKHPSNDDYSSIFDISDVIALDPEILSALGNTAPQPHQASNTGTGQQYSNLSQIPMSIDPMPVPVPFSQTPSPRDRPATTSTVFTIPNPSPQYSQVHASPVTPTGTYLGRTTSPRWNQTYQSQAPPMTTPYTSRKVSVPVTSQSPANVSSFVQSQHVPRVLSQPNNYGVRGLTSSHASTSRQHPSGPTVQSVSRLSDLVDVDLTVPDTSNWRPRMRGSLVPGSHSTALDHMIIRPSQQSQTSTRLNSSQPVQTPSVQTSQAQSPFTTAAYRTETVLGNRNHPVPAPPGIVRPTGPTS
Kind of test: affinity purification with mass spectrometry; protein extract of transgenic Arabidopsis (flowers); purification with the anti-Myc antibody (results) / anti-Flag affinity gel (methods), 2.5 h at 4°C, lysis buffer 50 mM Tris-HCl pH 7.6, 150 mM NaCl, 5 mM MgCl2, 10% glycerol, 0.1% NP-40; gel bands analysed by mass spectrometry.

In test [1] the target is T2, PIAL2-IND-M-Myc (Arabidopsis) (UniProt F4JYG0).
T2 sequence: T1 sequence with D182A, F183A, I185A
The description is as above.

On to “MOM1 (endogenous, co-purified from transgenic plants) (from UniProt Q9M658 1-2001)”, for which the results for the binding result (with PIAL2-Myc (Arabidopsis); in test [1]) were “binds” and “no binding”, respectively.

The values are drawn from article PMC6084981.
